Results reported in paper PMC11173765 (Molecules, 2024).

Tests used:
SH-SY5Y = assay: Cytotoxicity, resazurin viability assay in SH-SY5Y cells; format: cell-based; conditions: Homo sapiens, 48 hrs treatment, mean ± SEM
Experimental: (§1) To gather preliminary data for later use evaluating antioxidant properties, we tested the cytotoxicity profiles of the novel compounds in human cell lines of neuroblastoma SH-SY5Y and hepatocarcinoma HUH-7, which are commonly used as neuronal models in similar studies.
(§2) Cytotoxic potency was measured using a resazurin assay (see Supplementary Materials). Cells were treated with increasing concentrations of each compound for 48 hours before the cell viability was assessed (Supplementary Materials). […]
(§3) Cell viability was evaluated using resazurin (SERVA Electrophoresis GmbH, Heidelberg, Germany) as previously described.
(§4) Briefly, a resazurin stock solution (440 μM, 10× in phosphate-buffered saline) was diluted in a culture medium to prepare a 44 μM working solution. Cells (5 × 10^3) were seeded in 96-well plates, incubated with 100µl of resazurin working solution, and fluorescence was measured after 1, 2, and 3 hrs. The background fluorescence of killed cells was subtracted, and viability was calculated relative to control cells treated with DMSO solvent (1%). The fluorescence was measured using an Envision 2104 Multi-label Microplate Reader (Perkin Elmer, Boston, MA, USA) and by setting the excitation wavelength at λ = 530 nm and emission wavelength at λ = 590 nm. […] Cytotoxicity was calculated as 100% minus the percentage of viability. […]

HUH-7 = assay: Cytotoxicity, resazurin viability assay in HUH-7 cells; format: cell-based; conditions: Homo sapiens, 48 hrs treatment, mean ± SEM
Experimental: as §1, §2, §3, §4

For `O=C(CCCN1CCC(O)(c2ccc(Cl)cc2)CC1)c1ccc(F)cc1` [HAL, haloperidol, reference compound], the IC50 (SH-SY5Y) was 41 ± 6 µM and the IC50 (HUH-7) was 19 ± 2 µM.
